# Measurements: the supplement of paper PMC10032668
# Sequences of proteins named here, by UniProt entry; tags and fusion partners are left off.
# PPP1CB, P62140, UniProt P62140, whole entry: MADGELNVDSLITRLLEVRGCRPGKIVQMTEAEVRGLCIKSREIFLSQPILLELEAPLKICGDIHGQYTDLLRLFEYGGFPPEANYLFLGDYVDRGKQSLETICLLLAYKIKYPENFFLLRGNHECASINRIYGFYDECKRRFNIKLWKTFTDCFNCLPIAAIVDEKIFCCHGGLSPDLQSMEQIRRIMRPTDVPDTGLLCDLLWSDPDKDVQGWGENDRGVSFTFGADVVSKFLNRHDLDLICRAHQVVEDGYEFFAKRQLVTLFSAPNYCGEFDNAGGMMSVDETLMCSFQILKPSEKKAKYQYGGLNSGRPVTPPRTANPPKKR
# SRSF9, Q13242, UniProt Q13242, whole entry: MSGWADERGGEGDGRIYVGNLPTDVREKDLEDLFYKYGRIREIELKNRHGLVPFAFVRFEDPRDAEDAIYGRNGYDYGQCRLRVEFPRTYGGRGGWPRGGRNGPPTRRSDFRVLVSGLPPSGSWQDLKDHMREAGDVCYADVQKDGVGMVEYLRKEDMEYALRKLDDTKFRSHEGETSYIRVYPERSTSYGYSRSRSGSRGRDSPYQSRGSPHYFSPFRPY
# H2AFY2, Q9P0M6, UniProt Q9P0M6, whole entry: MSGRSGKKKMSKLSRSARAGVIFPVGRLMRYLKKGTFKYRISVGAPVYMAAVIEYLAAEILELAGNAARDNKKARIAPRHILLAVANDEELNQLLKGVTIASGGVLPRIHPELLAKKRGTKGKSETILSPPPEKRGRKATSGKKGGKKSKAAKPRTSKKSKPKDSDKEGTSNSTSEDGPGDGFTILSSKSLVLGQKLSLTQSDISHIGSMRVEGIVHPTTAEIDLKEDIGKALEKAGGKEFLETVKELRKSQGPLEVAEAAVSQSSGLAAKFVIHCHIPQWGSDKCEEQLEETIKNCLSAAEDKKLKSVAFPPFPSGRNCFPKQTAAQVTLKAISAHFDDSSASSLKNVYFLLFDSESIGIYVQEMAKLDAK
# TUBB8, Q3ZCM7, UniProt Q3ZCM7, whole entry: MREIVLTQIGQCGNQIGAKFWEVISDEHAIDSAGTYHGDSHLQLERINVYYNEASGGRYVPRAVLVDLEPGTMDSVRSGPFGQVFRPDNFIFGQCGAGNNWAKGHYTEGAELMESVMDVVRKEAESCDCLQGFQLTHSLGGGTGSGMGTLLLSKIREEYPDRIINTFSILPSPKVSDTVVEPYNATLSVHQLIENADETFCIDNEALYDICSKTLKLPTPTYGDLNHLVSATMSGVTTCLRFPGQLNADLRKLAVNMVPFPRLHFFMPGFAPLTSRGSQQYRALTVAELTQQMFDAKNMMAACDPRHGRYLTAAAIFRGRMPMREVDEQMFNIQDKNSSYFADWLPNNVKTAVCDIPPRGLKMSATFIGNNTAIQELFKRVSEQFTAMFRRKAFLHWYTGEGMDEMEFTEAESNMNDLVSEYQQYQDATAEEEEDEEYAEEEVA
# SELENOI, Q9C0D9, UniProt Q9C0D9, whole entry: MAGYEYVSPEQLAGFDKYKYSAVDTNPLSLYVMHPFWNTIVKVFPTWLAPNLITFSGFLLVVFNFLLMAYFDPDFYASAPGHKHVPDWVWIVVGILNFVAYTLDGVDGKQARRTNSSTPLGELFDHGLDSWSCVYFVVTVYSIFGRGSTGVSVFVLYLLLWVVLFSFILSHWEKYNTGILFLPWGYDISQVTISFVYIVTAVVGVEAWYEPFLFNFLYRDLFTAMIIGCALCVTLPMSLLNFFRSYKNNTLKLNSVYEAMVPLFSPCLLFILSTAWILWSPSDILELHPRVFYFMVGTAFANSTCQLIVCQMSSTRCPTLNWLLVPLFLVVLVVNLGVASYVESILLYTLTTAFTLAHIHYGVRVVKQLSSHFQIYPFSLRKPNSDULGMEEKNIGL
# ± gives the standard deviation of the averaged measurements. The list shows a part of the results. The list holds hits alone, and they repeat only in part.
# What was measured:
# Assay in all cases: PRISMA enrichment of interactor (LFQ) in peptide spot vs all other peptide spots (log2 fold change); higher = stronger / more specific binding of the interactor to the peptide
# EIF2S2, P20042 = target: EIF2S2, P20042
# Protocol: (§1)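 PRISMA: 15-aa overlapping tiles (offset 8 aa) of 60 microproteins, plus SOS1/GLUT1 control peptides, were spot-synthesized on cellulose membranes in triplicate. Membranes were incubated with benzonase-treated HEK293T lysate, and bound proteins were identified by LC-MS/MS with LFQ. Enrichment is the log2 fold change of each protein in one spot versus all other spots. Only interactors passing the significance cutoff are listed.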
# MRPS11, P82912 = target: MRPS11, P82912
# Protocol: as §1
# TACO1, Q9BSH4 = target: TACO1, Q9BSH4
# Protocol: as §1
# EHHADH, Q08426 = target: EHHADH, Q08426
# Protocol: as §1
# EIF4A1, P60842 = target: EIF4A1, P60842
# Protocol: as §1
# HELLS, Q9NRZ9 = target: HELLS, Q9NRZ9
# Protocol: as §1
# MARCKSL1, P49006 = target: MARCKSL1, P49006
# Protocol: as §1
# NOP16, Q9Y3C1 = target: NOP16, Q9Y3C1
# Protocol: as §1
# PAF1, Q8N7H5 = target: PAF1, Q8N7H5
# Protocol: as §1
# PEF1, Q9UBV8 = target: PEF1, Q9UBV8
# Protocol: as §1
# PIN4, Q9Y237 = target: PIN4, Q9Y237
# Protocol: as §1
# PPP1CB, P62140 = target: PPP1CB, P62140
# Protocol: as §1
# PRDX4, Q13162 = target: PRDX4, Q13162
# Protocol: as §1
# PRMT1, Q99873 = target: PRMT1, Q99873
# Protocol: as §1
# RAB3GAP1, Q15042 = target: RAB3GAP1, Q15042
# Protocol: as §1
# RALY, Q9UKM9 = target: RALY, Q9UKM9
# Protocol: as §1
# SF3B1, O75533 = target: SF3B1, O75533
# Protocol: as §1
# SFXN1, Q9H9B4 = target: SFXN1, Q9H9B4
# Protocol: as §1
# SLC25A24, Q6NUK1 = target: SLC25A24, Q6NUK1
# Protocol: as §1
# TOMM6, Q96B49 = target: TOMM6, Q96B49
# Protocol: as §1
# ZNF483, Q8TF39 = target: ZNF483, Q8TF39
# Protocol: as §1
# ZW10, O43264 = target: ZW10, O43264
# Protocol: as §1
# EEFSEC, P57772 = target: EEFSEC, P57772
# Protocol: as §1
# GNL3L, Q9NVN8 = target: GNL3L, Q9NVN8
# Protocol: as §1
# GRB10, Q13322 = target: GRB10, Q13322
# Protocol: as §1
# LTV1, Q96GA3 = target: LTV1, Q96GA3
# Protocol: as §1
# SLAIN2, Q9P270 = target: SLAIN2, Q9P270
# Protocol: as §1
# GPC1, P35052 = target: GPC1, P35052
# Protocol: as §1
# INTS2, Q9H0H0 = target: INTS2, Q9H0H0
# Protocol: as §1
# ISYNA1, Q9NPH2 = target: ISYNA1, Q9NPH2
# Protocol: as §1
# MTCH2, Q9Y6C9 = target: MTCH2, Q9Y6C9
# Protocol: as §1
# TRMT112, Q9UI30 = target: TRMT112, Q9UI30
# Protocol: as §1
# ERH, P84090 = target: ERH, P84090
# Protocol: as §1
# PPP6R3, Q5H9R7 = target: PPP6R3, Q5H9R7
# Protocol: as §1
# SRSF9, Q13242 = target: SRSF9, Q13242
# Protocol: as §1
# VIRMA, Q69YN4 = target: VIRMA, Q69YN4
# Protocol: as §1
# EBP, Q15125 = target: EBP, Q15125
# Protocol: as §1
# FAM50A, Q14320 = target: FAM50A, Q14320
# Protocol: as §1
# H2AFY2, Q9P0M6 = target: H2AFY2, Q9P0M6
# Protocol: as §1
# INTS7, Q9NVH2 = target: INTS7, Q9NVH2
# Protocol: as §1
# MRPL27, Q9P0M9 = target: MRPL27, Q9P0M9
# Protocol: as §1
# MRRF, Q96E11 = target: MRRF, Q96E11
# Protocol: as §1
# NDUFAB1, O14561 = target: NDUFAB1, O14561
# Protocol: as §1
# TUBB8, Q3ZCM7 = target: TUBB8, Q3ZCM7
# Protocol: as §1
# WDR46, O15213 = target: WDR46, O15213
# Protocol: as §1
# ZG16B, Q96DA0 = target: ZG16B, Q96DA0
# Protocol: as §1
# GLRX3, O76003 = target: GLRX3, O76003
# Protocol: as §1
# HMGB1, P09429 = target: HMGB1, P09429
# Protocol: as §1
# NAP1L1, P55209 = target: NAP1L1, P55209
# Protocol: as §1
# NUCKS1, Q9H1E3 = target: NUCKS1, Q9H1E3
# Protocol: as §1
# PTGES3, Q15185 = target: PTGES3, Q15185
# Protocol: as §1
# PTMA, P06454 = target: PTMA, P06454
# Protocol: as §1
# PTMS, P20962 = target: PTMS, P20962
# Protocol: as §1
# RPLP1, P05386 = target: RPLP1, P05386
# Protocol: as §1
# RPS29, P62273 = target: RPS29, P62273
# Protocol: as §1
# SGPP1, Q9BX95 = target: SGPP1, Q9BX95
# Protocol: as §1
# YWHAH, Q04917 = target: YWHAH, Q04917
# Protocol: as §1
# GEMIN2, O14893 = target: GEMIN2, O14893
# Protocol: as §1
# NUTF2, P61970 = target: NUTF2, P61970
# Protocol: as §1
# OSTC, Q9NRP0 = target: OSTC, Q9NRP0
# Protocol: as §1
# PUS1, Q9Y606 = target: PUS1, Q9Y606
# Protocol: as §1
# RER1, O15258 = target: RER1, O15258
# Protocol: as §1
# GTF3C2, Q8WUA4 = target: GTF3C2, Q8WUA4
# Protocol: as §1
# SELENOI, Q9C0D9 = target: SELENOI, Q9C0D9
# Protocol: as §1
# YIF1B, Q5BJH7 = target: YIF1B, Q5BJH7
# Protocol: as §1
# FAM91A1, Q658Y4 = target: FAM91A1, Q658Y4
# Protocol: as §1
# GNPDA1, P46926 = target: GNPDA1, P46926
# Protocol: as §1
# HDAC2, Q92769 = target: HDAC2, Q92769
# Protocol: as §1
binder,measurement,setting,value
MDDGNIRLSRNPSGN [SNHG8_2],PRISMA enrichment of interactor (log2),"EIF2S2, P20042",5.3
same,PRISMA enrichment of interactor (log2),"MRPS11, P82912",4.33
same,PRISMA enrichment of interactor (log2),"TACO1, Q9BSH4",5.91
SEVLAEQRRPGMRLQ [ABR],PRISMA enrichment of interactor (log2),"EHHADH, Q08426",6.8
same,PRISMA enrichment of interactor (log2),"EIF4A1, P60842",4.67
same,PRISMA enrichment of interactor (log2),"HELLS, Q9NRZ9",4.85
same,PRISMA enrichment of interactor (log2),"MARCKSL1, P49006",4.37
same,PRISMA enrichment of interactor (log2),"NOP16, Q9Y3C1",4.68
same,PRISMA enrichment of interactor (log2),"PAF1, Q8N7H5",5.36
same,PRISMA enrichment of interactor (log2),"PEF1, Q9UBV8",4.89
same,PRISMA enrichment of interactor (log2),"PIN4, Q9Y237",5.36
same,PRISMA enrichment of interactor (log2),"PPP1CB, P62140",5.14
same,PRISMA enrichment of interactor (log2),"PRDX4, Q13162",4.9
same,PRISMA enrichment of interactor (log2),"PRMT1, Q99873",5.34
same,PRISMA enrichment of interactor (log2),"RAB3GAP1, Q15042",8.53
same,PRISMA enrichment of interactor (log2),"RALY, Q9UKM9",4.92
same,PRISMA enrichment of interactor (log2),"SF3B1, O75533",5.78
same,PRISMA enrichment of interactor (log2),"SFXN1, Q9H9B4",4.69
same,PRISMA enrichment of interactor (log2),"SLC25A24, Q6NUK1",5.58
same,PRISMA enrichment of interactor (log2),"TOMM6, Q96B49",6.07
same,PRISMA enrichment of interactor (log2),"ZNF483, Q8TF39",4.23
same,PRISMA enrichment of interactor (log2),"ZW10, O43264",5.54
MIIGPKLTALPKRQR [SNHG8],PRISMA enrichment of interactor (log2),"EEFSEC, P57772",7.16
same,PRISMA enrichment of interactor (log2),"GNL3L, Q9NVN8",5.73
same,PRISMA enrichment of interactor (log2),"GRB10, Q13322",4.86
same,PRISMA enrichment of interactor (log2),"LTV1, Q96GA3",7.04
same,PRISMA enrichment of interactor (log2),"SLAIN2, Q9P270",6.03
FLLVRRTRAAAYAFA [TUG1],PRISMA enrichment of interactor (log2),"GPC1, P35052",4.26
same,PRISMA enrichment of interactor (log2),"INTS2, Q9H0H0",4.76
same,PRISMA enrichment of interactor (log2),"ISYNA1, Q9NPH2",4.53
same,PRISMA enrichment of interactor (log2),"MTCH2, Q9Y6C9",6.75
same,PRISMA enrichment of interactor (log2),"TRMT112, Q9UI30",6.88
NILVRMVSEAGTGFC,PRISMA enrichment of interactor (log2),"ERH, P84090",6.14
same,PRISMA enrichment of interactor (log2),"PPP6R3, Q5H9R7",4.37
same,PRISMA enrichment of interactor (log2),"SRSF9, Q13242",5.41
same,PRISMA enrichment of interactor (log2),"TRMT112, Q9UI30",6.11
same,PRISMA enrichment of interactor (log2),"VIRMA, Q69YN4",5.06
LRAFHVTPGARRRLV [EBAG9],PRISMA enrichment of interactor (log2),"EBP, Q15125",4.67
same,PRISMA enrichment of interactor (log2),"FAM50A, Q14320",4.21
same,PRISMA enrichment of interactor (log2),"H2AFY2, Q9P0M6",5.55
same,PRISMA enrichment of interactor (log2),"INTS7, Q9NVH2",5.41
same,PRISMA enrichment of interactor (log2),"MRPL27, Q9P0M9",11.4
same,PRISMA enrichment of interactor (log2),"MRRF, Q96E11",4.74
same,PRISMA enrichment of interactor (log2),"NDUFAB1, O14561",3.87
same,PRISMA enrichment of interactor (log2),"TUBB8, Q3ZCM7",5.7
same,PRISMA enrichment of interactor (log2),"WDR46, O15213",5.97
same,PRISMA enrichment of interactor (log2),"ZG16B, Q96DA0",4.12
MKKKKYSHWKRGKVI [RP11-432J24.5],PRISMA enrichment of interactor (log2),"GLRX3, O76003",4.17
same,PRISMA enrichment of interactor (log2),"HMGB1, P09429",6.34
same,PRISMA enrichment of interactor (log2),"NAP1L1, P55209",5.83 ± 0.28
same,PRISMA enrichment of interactor (log2),"NUCKS1, Q9H1E3",4.39
same,PRISMA enrichment of interactor (log2),"PTGES3, Q15185",5.43
same,PRISMA enrichment of interactor (log2),"PTMA, P06454",5.55
same,PRISMA enrichment of interactor (log2),"PTMS, P20962",4.84
same,PRISMA enrichment of interactor (log2),"RPLP1, P05386",6.07
same,PRISMA enrichment of interactor (log2),"RPS29, P62273",4.45
same,PRISMA enrichment of interactor (log2),"SGPP1, Q9BX95",5.58
same,PRISMA enrichment of interactor (log2),"YWHAH, Q04917",4.44
FAKSVSFSDVFFKGF [NDUFB3],PRISMA enrichment of interactor (log2),"GEMIN2, O14893",5.36
same,PRISMA enrichment of interactor (log2),"NUTF2, P61970",4.83
same,PRISMA enrichment of interactor (log2),"OSTC, Q9NRP0",4.81
same,PRISMA enrichment of interactor (log2),"PUS1, Q9Y606",4.56
same,PRISMA enrichment of interactor (log2),"RER1, O15258",5.03
LLVGSGLGPFSGNIF [BANCR],PRISMA enrichment of interactor (log2),"GTF3C2, Q8WUA4",4.31
same,PRISMA enrichment of interactor (log2),"SELENOI, Q9C0D9",3.85
same,PRISMA enrichment of interactor (log2),"YIF1B, Q5BJH7",4.54
CFNTKRNRLREKLTL,PRISMA enrichment of interactor (log2),"FAM91A1, Q658Y4",4.91
same,PRISMA enrichment of interactor (log2),"GNPDA1, P46926",5.17
same,PRISMA enrichment of interactor (log2),"HDAC2, Q92769",3.75

# Given bar-delimited: part of the list above
binder | measurement | setting | value
MKKKKYSHWKRGKVI [RP11-432J24.5] | PRISMA enrichment of interactor (log2) | PTMA, P06454 | 5.55
LLVGSGLGPFSGNIF [BANCR] | PRISMA enrichment of interactor (log2) | GTF3C2, Q8WUA4 | 4.31
